Values quoted from earlier work as cited in patent US20030130272A1, “Anthracene derivatives as anti-cancer agents” (priority 1999, published 2003).
Where two headings read alike, the source gives them in different places.

Columns and labels:
[1] = in rodents; cited from earlier work
[2] = in man; cited from earlier work

In the case of `COc1cccc2c1C(=O)c1c(O)c3c(c(O)c1C2=O)C[C@@](O)(C(=O)CO)C[C@@H]3O[C@H]1C[C@H](N)[C@H](O)[C@H](C)O1` [doxorubicin], the maximum tolerated dose [1] is listed as 5 mg/kg and the maximum tolerated dose [2] is listed as 1 to 2 mg/kg.
